In the experiment the target is TMC-2 (transmembrane channel-like protein 2), native, tagged with mVenus-3xFLAG at the endogenous locus (C. elegans) (UniProt Q11069). The experiment is described as follows: cryo-EM structure; single-particle cryo-EM of the native TMC-2 complex isolated from worms (anti-FLAG affinity, SEC, GDN, 1 mM CaCl2); cis-dimeric particles selected.

One molecule from PMC10895266, “The structure of the Caenorhabditis elegans TMC-2 complex suggests roles of lipid-mediated subunit contacts in mechanosensory transduction” (Proceedings of the National Academy of Sciences of the …, 2024) can be followed below.

Results are given in words; binding and its absence hold for the method and conditions named. Some binding calls cover weakened binding; strength is not graded here. Tags and fused reporters may be left off the sequences shown.

B1: TMC-2 (transmembrane channel-like protein 2), native, tagged with mVenus-3xFLAG at the endogenous locus (natural protein, C. elegans, UniProt Q11069 1-1203, looked up)
chain: MPKSGAHQPLVRHDTDDGGETGQSVKSLADVSEEEIDSRMSRRSSVIADLLSLFRRSSSVLVRPHTRLGNPNFDDDDDEFDEEDDKEASKDRILKKIQQKKEIIQKLRGQPWYMKRKRRTLKVAQKHLQQQEAKVSKARLYKAEAGRRLTQASRWLDNLKIYLIPWEAKIRKIESHFGSVVSSYFTFHRWVLGVNITITFIMCMFVVIPEWLADSRTQFGDDRYNKTKAIKVMPPAVRARADELSTVWDFGGYFQYSLLFYGFYSKETFFGETIKYRVPVAYFFCNIFILGFSLFIILRKMAANNRRGTLSSGKTQQYLFNWKAFTGWDYTIGNPETAGNVYMANVIKFREAINDDKQKPSDKHPWIRFVARVLTNLFICAMYVFSIWAIMQCGTLKGEHFFAQNATAITISLITLVFPNIFDLLGKIEKLHPRNALRFQLGRVLVLYILNYYTLIYSLMLQLEHLQKEKNASDNPISALGHPGDAIGRTIRETVLPRYPVDNNPHTYYSYAPVTTTPIPATSSWTTVLPDFGPFGVYNPKASVTKDDTVFSSPVVETHMFGPNSDWNETTVNAASPTGATTRASLRMSQGGLCWETIIGQEITKLVTMDLYMTVASIFLIDFLRGLACRYLNLYWPWDLERTFPEYGEFKVAENVLHLVNNQGMIWLGLFFVPLLPMLNNIKLIILMYIRGWAAMTCNVPASQIFRASRSSNFFFALLILFLFLCTLPVGFVIASKTPSKSCGPFGNQSFFYSVITDVLHENLDKTLVNGIKYSLSPGIIIPVLVLLSLVIYFLIAMVTGLSQANQDLSFQLMVERTEEKKKIFELAGGKKKKSKDNTFGKQKPKQLLPPPTKGVSSDDDSQHNRSTAKSVSGRQFVPSLGSVSEVDHSTGEEQSSDSESTTSSLPPKLSLRQRFLVCIGWADPNKYGRHDDIEMEEGGGRLRELSTGSETDSDDEDSEKSNRDMSYRTAIQSFDQNSQSASASSSKSTTTAPSNSEMRIEITENPLHTYITPLRIEKKSSASSSSSSHQPSSSIEKQAARRLLQPISTTHNIRYGVATVENSSQDPTRPPSTDDSLGDPALHEPLWANLNPHSSYTSAMMSPIMNEVMSNDETTDDEKGRLIPDRPPIPHSPRELKRLKREKDQQSESGSKPSTPRPPRFRISMSPPRKPPSEKNDSDSSNRKYEMRVEKSPKKPKKSDND
modifications: N-glycans at N225 and N748
notes: TMC-2, C. elegans, endogenous tmc-2 gene (Wormbase B0416.1a); tag inserted prior to the stop codon; residues M1 to D1203 named; modelled 89-471, 583-813; A 3C (PreScission) site lies between mVenus and 3xFLAG; The complex was captured on anti-FLAG resin by the 3xFLAG tag, which was cut off on elution with 3C protease before SEC, mass spectrometry and cryo-EM; also called TMC-2-mVenus; …
B1: the binding result was “binds”.
